{
  "source": "patent US6730302",
  "binders": {"B1": {"name": "endogenous NF-kB p50 subunit of LPS-treated 70Z/3 cells, P25799 1-431 (protein, mouse, UniProt P25799 1-431, looked up)", "chain": "MADDDPYGTGQMFHLNTALTHSIFNAELYSPEIPLSTDGPYLQILEQPKQRGFRFRYVCEGPSHGGLPGASSEKNKKSYPQVKICNYVGPAKVIVQLVTNGKNIHLHAHSLVGKHCEDGVCTVTAGPKDMVVGFANLGILHVTKKKVFETLEARMTEACIRGYNPGLLVHSDLAYLQAEGGGDRQLTDREKEIIRQAAVQQTKEMDLSVVRLMFTAFLPDSTGSFTRRLEPVVSDAIYDSKAPNASNLKIVRMDRTAGCVTGGEEIYLLCDKVQKDDIQIRFYEEEENGGVWEGFGDFSPTDVHRQFAIVFKTPKYKDVNITKPASVFVQLRRKSDLETSEPKPFLYYPEIKDKEEVQRKRQKLMPNFSDSFGGGSGAGAGGGGMFGSGGGGGSTGSPGPGYGYSNYGFPPYGGITFHPGVTKSNAGVTHG"}},
  "target": "T1, endogenous NF-kB p65 subunit of 70Z/3 cells (mouse), Q04207",
  "T1 chain": "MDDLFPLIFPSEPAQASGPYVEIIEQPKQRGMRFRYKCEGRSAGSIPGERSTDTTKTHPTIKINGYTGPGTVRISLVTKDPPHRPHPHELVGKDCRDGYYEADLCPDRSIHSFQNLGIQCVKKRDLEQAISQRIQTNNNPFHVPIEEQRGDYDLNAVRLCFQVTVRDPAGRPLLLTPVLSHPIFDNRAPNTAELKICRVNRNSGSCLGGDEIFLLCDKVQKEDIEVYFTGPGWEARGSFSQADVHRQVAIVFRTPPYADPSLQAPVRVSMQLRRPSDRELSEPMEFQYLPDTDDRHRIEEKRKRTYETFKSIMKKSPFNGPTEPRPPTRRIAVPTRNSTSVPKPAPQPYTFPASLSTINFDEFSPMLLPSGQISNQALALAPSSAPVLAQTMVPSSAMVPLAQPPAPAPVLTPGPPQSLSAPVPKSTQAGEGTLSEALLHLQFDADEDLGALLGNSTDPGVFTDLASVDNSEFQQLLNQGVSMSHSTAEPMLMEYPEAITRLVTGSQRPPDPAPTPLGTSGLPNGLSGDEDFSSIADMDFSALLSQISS",
  "assay": "EMSA supershift, nuclear extracts of LPS-treated 70Z/3 cells",
  "conditions": "remark: other sources report otherwise",
  "note": "Results are given in words; binding and its absence hold for the method and conditions named. Some results given as binding are weak or reduced against the parent protein; the word gives no strength.",
  "data": [
    {"binder": "B1", "values": [
      {"measurement": "binding", "result": "binds"}
    ]}
  ]
}
